# Measurements published in PubChem BioAssay AID588590 (National Center for Advancing Translational Sciences (NCATS), 2011).
# The chains behind the UniProt entries cited, without tags or fusion partners. Where a name states a change or a piece, a line headed by the entry shows the natural chain unless it says otherwise.
# UniProt Q9UNA4: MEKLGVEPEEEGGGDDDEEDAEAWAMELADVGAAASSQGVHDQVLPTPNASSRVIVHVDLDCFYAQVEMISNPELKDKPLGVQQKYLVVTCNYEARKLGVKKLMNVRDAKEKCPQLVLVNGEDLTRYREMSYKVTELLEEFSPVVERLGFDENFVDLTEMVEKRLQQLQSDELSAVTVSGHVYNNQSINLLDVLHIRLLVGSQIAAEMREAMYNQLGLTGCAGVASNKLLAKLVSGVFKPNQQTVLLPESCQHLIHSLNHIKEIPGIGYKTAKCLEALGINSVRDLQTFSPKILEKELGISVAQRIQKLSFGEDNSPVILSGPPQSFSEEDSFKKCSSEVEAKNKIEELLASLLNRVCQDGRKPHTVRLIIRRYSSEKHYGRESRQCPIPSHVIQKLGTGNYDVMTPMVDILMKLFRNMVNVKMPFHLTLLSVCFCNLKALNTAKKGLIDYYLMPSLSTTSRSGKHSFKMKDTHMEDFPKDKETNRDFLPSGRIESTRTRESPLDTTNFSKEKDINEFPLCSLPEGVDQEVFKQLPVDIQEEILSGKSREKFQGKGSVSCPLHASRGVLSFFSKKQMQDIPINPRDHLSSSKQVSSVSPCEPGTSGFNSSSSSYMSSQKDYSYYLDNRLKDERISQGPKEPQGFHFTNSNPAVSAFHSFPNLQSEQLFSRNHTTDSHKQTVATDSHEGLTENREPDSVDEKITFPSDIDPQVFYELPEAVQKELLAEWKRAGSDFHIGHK
# The campaign covered roughly 390,000 compounds. About 4,000 (1%) were called active. This list was built around the results that the source calls inconclusive (neither active nor inactive); the mix of calls is not that of the screen. The call rests on the fitted dose curve; in most records, active means well fitted inhibition curve with a large enough effect; inconclusive means small, poorly fitted or top-dose-only effect, or another doubt; inactive means no such curve, though single readings can be large or run the other way. Where the call is inconclusive, the potency comes from a doubtful curve fit.
# Biological target: DNA polymerase iota (Homo sapiens) (UniProt Q9UNA4)
# Assay: qHTS for Inhibitors of Polymerase Iota
# Conditions: Pol iota fluorescent replication assay, 10 min; series mostly up to 115 µM; activity, negative = inhibition: at the top concentration
# Method in brief: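 Pol iota at 10 nM preincubated 15 min with compounds at room temperature; reaction started with fluorescent substrate, 50 nM final. Fluorescence read kinetically at 0 and 10 min; buffer-only wells as negative control.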
# Potency means the concentration at half of the fitted maximal effect.
SMILES,Potency,"activity, negative = inhibition"
CCCOc1ccc2c(c1)C(=NN=C(N)N)c1cc(OCCC)ccc1-2,"inconclusive: 14.1 µM [inhibitor, partial curve, poor fit]",
Cc1ccc(Cl)c(OCC(=O)NCc2ccco2)c1,"inconclusive: 35.5 µM [inhibitor, partial curve, poor fit]",
NS(=O)(=O)c1ccc(-n2ncc3c(=O)[nH]c(SCC(=O)Nc4nccs4)nc32)cc1,"inconclusive: 3.55 µM [inhibitor, full curve, poor fit]",
Cc1cnc(NC(=O)c2ccc3c(c2)C(=O)N(Cc2ccco2)C3=O)s1,"inconclusive: 25.1 µM [inhibitor, partial curve, poor fit]",
CC(Sc1nnc(C2CC2)n1C1CC1)C(=O)Nc1cccc(S(=O)(=O)N(C)C)c1 (stereo not drawn),,inactive: 17.3%
COC(=O)c1cc(OC)c(OC)cc1NC(=O)c1ccc(Br)o1,"inconclusive: 10 µM [inhibitor, full curve, poor fit]",
O=c1/c(=C\c2ccc(O)cc2)sc2n1C(c1ccccc1)C(c1ccccc1)=NN=2 (stereo not drawn),"inconclusive: 0.708 µM [inhibitor, full curve, poor fit]",
CC(=O)c1sc(N/N=C\c2ccccc2O)nc1C,"inconclusive: 79.4 µM [inhibitor, partial curve, poor fit]",
O=C(CN1CCN(c2ccccc2F)CC1)NC(=O)NCc1ccco1,"inconclusive: 15.8 µM [inhibitor, partial curve, poor fit]",
O=C(N/N=C/c1ccccn1)c1cccnc1,"inconclusive: 14.1 µM [inhibitor, partial curve]",
CC(C)NC(=O)Cn1cc(C(=O)C2CC2)c2ccccc21,"inconclusive: 50.1 µM [inhibitor, single point]",
COc1ccc(NCc2nnc(SCC(=O)c3ccc(C)cc3)o2)cc1,"inconclusive: 35.5 µM [inhibitor, single point]",
OCCn1c(-c2ccc3c(c2)OCO3)csc1=Nc1ccccc1,"inconclusive: 17.8 µM [inhibitor, partial curve, poor fit]",
COc1cc(OC)cc(C(=O)OCC(=O)Nc2sccc2C(N)=O)c1,"inconclusive: 56.2 µM [inhibitor, partial curve, poor fit]",
Cc1ccc(N2CCN(C(=O)c3cnn(-c4ccc(C)c(C)c4)c3C3CCNCC3)CC2)c(C)c1,"inconclusive: 12.6 µM [inhibitor, partial curve, poor fit]",
O=C(OC(C(=O)Nc1cc(Cl)cc(Cl)c1)c1ccccc1)C1=COCCO1 (stereo not drawn),"inconclusive: 63.1 µM [inhibitor, partial curve, poor fit]",
CCOc1ccccc1C(=O)NCc1nc2cccnc2n1Cc1ccc(C)cc1,,inactive: 4.22%
CCc1ccc(NC(=O)C(C)OC(=O)c2ccc(NS(=O)(=O)c3ccc(C)c([N+](=O)[O-])c3)cc2)cc1 (stereo not drawn),"inconclusive: 39.8 µM [inhibitor, partial curve, poor fit]",
C=CCn1c(SCC(=O)N(C(C)CC)C2CCS(=O)(=O)C2)nc2ccccc2c1=O (stereo not drawn),"inconclusive: 89.1 µM [inhibitor, single point]",
CCOc1ccccc1NC(=O)CN(C)S(=O)(=O)c1cccc2nsnc12,"inconclusive: 89.1 µM [inhibitor, partial curve]",

# 2 entries from above, set out differently:
SMILES	Potency	activity, negative = inhibition
O=C(N/N=C/c1ccccn1)c1cccnc1	inconclusive: 14.1 µM [inhibitor, partial curve]	
O=C(OC(C(=O)Nc1cc(Cl)cc(Cl)c1)c1ccccc1)C1=COCCO1 (stereo not drawn)	inconclusive: 63.1 µM [inhibitor, partial curve, poor fit]	

# The list continues.

SMILES,Potency,"activity, negative = inhibition"
CCC(CC)c1nnc(NC(=O)COc2ccc3c(C)cc(=O)oc3c2)s1,,inactive: -3.88%
CN1C(C(=O)NCC2CC2)CC2Cn3c(nc4ccccc43)C21 (stereo not drawn),"inconclusive: 25.1 µM [inhibitor, partial curve]",
CCOC(=O)C1CCCN(C(=O)Cn2sc3nc(C)cc(C)c3c2=O)C1 (stereo not drawn),"inconclusive: 25.1 µM [inhibitor, partial curve, poor fit]",
O=C1CN(C(=O)CNCc2ccc(Cl)cc2)c2ccccc2N1,"inconclusive: 17.8 µM [inhibitor, full curve]",
Cc1ccc(NS(=O)(=O)c2ccc(NC(=O)c3cccs3)cc2)cc1,"inconclusive: 28.2 µM [inhibitor, partial curve]",
COc1ccccc1CNC(=O)CCn1cnc2ccccc2c1=O,"inconclusive: 89.1 µM [inhibitor, single point]",
CC(=O)N1CCOc2ccc(S(=O)(=O)NCCc3ccc(S(N)(=O)=O)cc3)cc21,,inactive: -0.645%
O=C(c1ccc2c(c1)N(Cc1cccc(Cl)c1)C(=O)c1ccccc1S2=O)N1CCN(c2cccc(C(F)(F)F)c2)CC1 (stereo not drawn),,inactive: 2.98%
O=C(CSc1nc2cc(S(=O)(=O)N3CCOCC3)ccc2o1)Nc1c(F)cccc1F,"inconclusive: 8.91 µM [inhibitor, partial curve, poor fit]",
Cc1ccc(NC(=S)NC(=O)/C=C/c2ccco2)c(O)c1,"inconclusive: 22.4 µM [inhibitor, single point]",
c1cc2c(c(NCc3ccncc3)c1)CCCC2,"inconclusive: 79.4 µM [inhibitor, partial curve]",
C#CCOCCOCCOCCNc1nc(N2CCN(C(=O)CCCCCCCCCCNC(=O)[C@H](CCCCN)n3cc(C)nn3)CC2)nc(N2CCN(C(=O)CCCCCCCCCCNC(=O)[C@@H]([C@H](C)O)n3cc(C)nn3)CC2)n1,"inconclusive: 35.5 µM [inhibitor, single point]",
CC(C)C(NS(=O)(=O)c1cccs1)C(=O)NCCCN1CCCCCC1 (stereo not drawn),"inconclusive: 70.8 µM [inhibitor, single point]",
CCOc1ccc(C2C(=O)N(C3CCCCC3)CC(=O)N2CCc2ccccc2)cc1OC (stereo not drawn),"inconclusive: 100 µM [inhibitor, partial curve, poor fit]",
N#CC1=C(N)Oc2cc(N)ccc2C1C1CCCCC1 (stereo not drawn),"inconclusive: 39.8 µM [inhibitor, single point]",
COc1cccc(CNC(=O)c2nnn(CC(=O)Nc3cc(C)ccc3C)c2N)c1,"inconclusive: 50.1 µM [inhibitor, partial curve]",
COc1ccc(C(=O)CSc2nnc(-c3cc4ccccc4cc3O)n2Cc2ccco2)cc1,"inconclusive: 70.8 µM [inhibitor, partial curve]",
CCOC(=O)c1c(C)nc(C)c(C(=O)OCC)c1-c1ccco1,"inconclusive: 28.2 µM [inhibitor, single point]",
COc1ccc2c(c1)N(C)/C(=C/c1cccc[n+]1C)S2,"inconclusive: 44.7 µM [inhibitor, partial curve, poor fit]",
COc1ccc(Cc2nnc(NS(=O)(=O)c3ccccc3)s2)cc1,"inconclusive: 39.8 µM [inhibitor, partial curve, poor fit]",

SMILES,Potency,"activity, negative = inhibition"
Oc1ccc(-c2nc3ccc4ccccc4c3c3c2CCC3)cc1O,"inconclusive: 79.4 µM [inhibitor, single point]",
O=C1C(=Cc2cccn2-c2ccc(O)cc2)C(=O)c2ccccc21,"inconclusive: 25.1 µM [inhibitor, partial curve, poor fit]",
CCN1C(=O)[C@H]2[C@@H](c3ccc(-c4ccc(C(C)=O)cc4)cc3)N[C@@](C)(C(=O)OC)[C@H]2C1=O,"inconclusive: 15.8 µM [inhibitor, partial curve, poor fit]",
C/C=C(/C)C(=O)Nc1cccc(C2=NOC3(C2)C[C@@H](C(N)=O)N(C(=O)CC(c2ccccc2)c2ccccc2)C3)c1 (stereo partly drawn),"inconclusive: 39.8 µM [inhibitor, single point]",
CN(Cc1ccccc1)C(=O)c1ccc(NC(=O)Cc2ccc(NC(=O)C3CCN(C(=O)CCc4ccccc4)CC3)cc2)cc1,"inconclusive: 100 µM [inhibitor, partial curve, poor fit]",
O=C(c1cc2ccccc2s1)N1CCN(c2ccccn2)CC1,,inactive: 29.9%
CSc1ccc(/C=C/C(=O)c2ccc(NC(=O)C(C)C)cc2)cc1,"inconclusive: 28.2 µM [inhibitor, partial curve, poor fit]",
Cc1cccc(C(=O)OCC(=O)c2c(N)n(CC(C)C)c(=O)n(C)c2=O)c1O,"inconclusive: 39.8 µM [inhibitor, partial curve, poor fit]",
COCCNC(=O)c1cc(-c2ccccc2)nn1CC1CC(c2cccnc2)=NO1 (stereo not drawn),"inconclusive: 12.6 µM [inhibitor, partial curve, poor fit]",
CCn1cc(S(=O)(=O)c2ccc(Cl)cc2)c(=O)c2cc(F)c(N3CCOCC3)cc21,,inactive: 24.7%
O=C(Cn1c(=O)n(-c2ccccc2)c(=O)c2sccc21)N1CCCC1,"inconclusive: 70.8 µM [inhibitor, partial curve]",
N#CC1=C(N)Oc2n[nH]c(-c3ccccc3)c2C1c1ccsc1 (stereo not drawn),"inconclusive: 25.1 µM [inhibitor, partial curve, poor fit]",
O=C1C=CC(=Nc2ccc3c(c2)C(=O)c2ccccc2-3)O1,,inactive: -15.3%
O=C(Cn1c(O)c(/C=C2\C=Nc3ccc(Br)cc32)sc1=O)N1CCCC1,"inconclusive: 7.94 µM [inhibitor, partial curve]",
CC(=O)N(/N=C1\Sc2ccccc2C1=O)c1cccc(C)c1,"inconclusive: 89.1 µM [inhibitor, single point]",
CCOC(=O)/C=c1\s/c(=C(\C#N)C(=O)OCC)n(-c2ccccc2)c1=O,"inconclusive: 15.8 µM [inhibitor, partial curve, poor fit]",
CC1=NC(C#N)=C(C#N)NC(C)(C)C1,"inconclusive: 39.8 µM [inhibitor, single point]",
O=C(CN1C(=O)NC(c2ccccc2)(c2ccccc2)C1=O)N1CCN(c2ccccc2F)CC1,"inconclusive: 8.91 µM [inhibitor, single point]",
